This is one part of the list. The source does not settle which construct or isoform was used.

Here are results for eleven sequences from article PMC7862700.

For the assay, the target named is T1, ETV4 (UniProt P43268).
T1 sequence: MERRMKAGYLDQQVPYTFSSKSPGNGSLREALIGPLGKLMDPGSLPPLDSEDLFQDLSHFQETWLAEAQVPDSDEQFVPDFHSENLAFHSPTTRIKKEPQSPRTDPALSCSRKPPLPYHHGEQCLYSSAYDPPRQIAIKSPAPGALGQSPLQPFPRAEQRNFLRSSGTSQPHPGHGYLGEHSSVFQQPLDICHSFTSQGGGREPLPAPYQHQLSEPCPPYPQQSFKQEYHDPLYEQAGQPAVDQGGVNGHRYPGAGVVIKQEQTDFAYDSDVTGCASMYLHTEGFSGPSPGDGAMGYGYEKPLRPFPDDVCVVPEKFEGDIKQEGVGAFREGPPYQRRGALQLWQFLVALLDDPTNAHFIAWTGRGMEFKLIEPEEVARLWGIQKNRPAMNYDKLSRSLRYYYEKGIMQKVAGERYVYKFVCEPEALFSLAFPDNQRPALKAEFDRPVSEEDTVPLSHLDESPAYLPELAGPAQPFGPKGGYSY
Briefly: DAPPL (digital affinity profiling via proximity ligation, sequencing). To be noted: 10 mM Tris-HCl pH 7.5, 50 mM NaCl, 1 mM DTT, 4% glycerol, room temperature, 30 min; GST-TFs on glutathione beads, 16-mer random dsDNA library, 0.1% …; high values mean tight binding; double strand, one strand shown; scale: fold enrichment (6-mer frequency, TF over GST control).

Sequence ATCTTG displayed a binding signal of 1.32.

CCCTGC returned a binding signal of 1.1.

CTCACG registered a binding signal of 1.33.

In turn, ACGTTG returned a binding signal of 1.05.

Sequence CCTGTG registered a binding signal of 1.17.

In turn, CACATA came in with a binding signal of 1.17.

With CTAGCA, the binding signal is 1.34.

ACGTTT yielded a binding signal of 1.22.

ATAACA gave a binding signal of 1.25.

CGCTCG returned a binding signal of 1.17.

In the case of TCACCC, the binding signal amounted to 1.23.
